Test results taken from article PMC8782169, “The distinct RNA-interaction modes of a small ZnF domain underlay TUT4(7) diverse action in miRNA regulation”.
These are yes or no findings as the source states them, for the method shown.

Biological target: T1, hTUT4 CCHC-ZnF3 (1354-1382) (human) (UniProt Q5TAX3)
T1 sequence (chain, 15N-labelled): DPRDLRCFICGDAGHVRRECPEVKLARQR
Assay: NMR 15N T1 and T2 relaxation + comparison of 15N HSQC spectra; 15N-labelled hTUT4 ZnF2-3 di-domain (1293-1382), both domains on one chain; T1 and T2 at 800 MHz, rotational correlation times of each domain; HSQC spectra of isolated ZnF2 and ZnF3 overlaid with ZnF2-3; both purified

binding: no binding
B1: hTUT4 CCHC-ZnF2 (1293-1321) (domain or fragment, UniProt Q5TAX3-3 1293-1321)
chain: RCCRVCGKIGHYMKDCPKRKSSLLFRLKK
modifications: 15N-labelled
